# Results as given in article PMC12374634.
# These are yes or no findings as the source states them, for the method shown. In cells and extracts the contact can be indirect. Some binding calls cover weakened binding; strength is not graded here. For some of these results: Sequences can lack the tags named with a protein.
# T1: activin receptor-like kinase 1 (ALK1), endogenous (mouse (endogenous in neonatal mouse cardiac fibroblasts)) (UniProt Q61288)
# T1 sequence: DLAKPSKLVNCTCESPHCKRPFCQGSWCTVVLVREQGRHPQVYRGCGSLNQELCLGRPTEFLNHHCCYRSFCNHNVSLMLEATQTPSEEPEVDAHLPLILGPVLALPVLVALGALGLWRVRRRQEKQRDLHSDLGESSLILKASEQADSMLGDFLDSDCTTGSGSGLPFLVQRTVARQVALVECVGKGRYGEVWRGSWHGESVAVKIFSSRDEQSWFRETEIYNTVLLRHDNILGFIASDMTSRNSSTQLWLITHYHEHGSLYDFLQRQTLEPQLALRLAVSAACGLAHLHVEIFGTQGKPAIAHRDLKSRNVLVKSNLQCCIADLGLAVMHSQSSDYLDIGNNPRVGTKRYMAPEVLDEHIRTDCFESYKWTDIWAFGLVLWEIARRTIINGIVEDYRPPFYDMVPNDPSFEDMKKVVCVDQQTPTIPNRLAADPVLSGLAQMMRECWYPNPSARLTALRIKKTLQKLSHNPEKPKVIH
# T2: TGF-β type III receptor (TGFBR3), endogenous (mouse (endogenous in neonatal mouse cardiac fibroblasts)) (UniProt O88393)
# T2 sequence: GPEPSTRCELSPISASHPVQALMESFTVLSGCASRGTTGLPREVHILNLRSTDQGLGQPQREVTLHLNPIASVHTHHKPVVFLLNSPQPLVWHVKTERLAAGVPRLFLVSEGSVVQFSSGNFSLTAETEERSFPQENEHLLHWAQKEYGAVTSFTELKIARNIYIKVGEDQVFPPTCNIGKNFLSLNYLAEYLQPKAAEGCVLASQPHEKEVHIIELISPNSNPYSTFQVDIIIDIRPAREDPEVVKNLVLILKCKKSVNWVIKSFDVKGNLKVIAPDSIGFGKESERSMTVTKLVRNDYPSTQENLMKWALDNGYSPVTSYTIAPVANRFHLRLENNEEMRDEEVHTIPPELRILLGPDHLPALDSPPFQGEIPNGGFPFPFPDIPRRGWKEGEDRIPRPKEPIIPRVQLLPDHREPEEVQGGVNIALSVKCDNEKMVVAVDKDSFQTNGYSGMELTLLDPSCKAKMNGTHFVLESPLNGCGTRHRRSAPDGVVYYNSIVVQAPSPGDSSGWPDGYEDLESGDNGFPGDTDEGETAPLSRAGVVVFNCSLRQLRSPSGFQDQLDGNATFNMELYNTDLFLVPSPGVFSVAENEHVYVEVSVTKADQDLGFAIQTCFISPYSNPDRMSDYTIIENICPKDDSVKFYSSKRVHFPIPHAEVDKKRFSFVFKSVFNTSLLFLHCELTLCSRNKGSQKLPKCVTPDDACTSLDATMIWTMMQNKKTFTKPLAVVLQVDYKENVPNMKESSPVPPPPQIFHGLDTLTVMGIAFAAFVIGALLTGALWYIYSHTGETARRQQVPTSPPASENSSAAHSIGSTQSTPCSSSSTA
# T3: GFP-FBLN7 (mouse) (UniProt Q501P1)
# T3 sequence: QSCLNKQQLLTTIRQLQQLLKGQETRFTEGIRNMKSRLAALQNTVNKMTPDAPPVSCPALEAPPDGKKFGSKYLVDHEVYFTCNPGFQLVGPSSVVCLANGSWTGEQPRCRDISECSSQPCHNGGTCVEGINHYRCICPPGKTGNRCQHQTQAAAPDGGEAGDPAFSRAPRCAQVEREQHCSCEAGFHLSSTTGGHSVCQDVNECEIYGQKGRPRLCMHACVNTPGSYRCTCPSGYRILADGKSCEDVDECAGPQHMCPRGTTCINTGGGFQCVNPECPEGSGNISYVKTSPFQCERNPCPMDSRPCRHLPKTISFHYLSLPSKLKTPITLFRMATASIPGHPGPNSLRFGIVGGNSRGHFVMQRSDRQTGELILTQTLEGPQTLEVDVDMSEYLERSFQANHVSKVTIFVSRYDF
# T4: Flag-TGFBR3 (mouse) (UniProt O88393)
# T4 sequence: T2 sequence
# B1: Fibulin 7 (FBLN7), endogenous (protein, UniProt Q501P1 25-440)
# chain: T3 sequence
# B2: Flag-TGFBR3 (receptor, UniProt O88393 23-850)
# chain: T2 sequence
# B3: GFP-FBLN7 (protein, UniProt Q501P1 25-440)
# chain: T3 sequence
# What was measured:
# [1] = target: T1, activin receptor-like kinase 1 (ALK1), endogenous (mouse (endogenous in neonatal mouse cardiac fibroblasts)); test: co-IP; endogenous proteins in lysate of senescent (D-gal-treated) mouse cardiac fibroblasts; IP with antibody to the receptor (or IgG), protein A/G magnetic beads, 4 °C overnight, washes with PBS with 0.5% Tween-20; immunoblot for FBLN7
# [2] = target: T2, TGF-β type III receptor (TGFBR3), endogenous (mouse (endogenous in neonatal mouse cardiac fibroblasts)); test: as above
# GFP-FBLN7 (mouse) = target: T3, GFP-FBLN7 (mouse); test: co-IP; 293T cells co-transfected with Flag-TGFBR3 and GFP-FBLN7, lysed 24 h after transfection in nondenaturing lysis buffer; reciprocal IP with GFP-tag or Flag-tag antibody, protein A/G magnetic beads, 4 °C overnight; immunoblot for the other tag
# Flag-TGFBR3 (mouse) = target: T4, Flag-TGFBR3 (mouse); test: as above
binder,measurement,setting,value
B1,binding,[1],no binding
same,binding,[2],binds
B2,binding,GFP-FBLN7 (mouse),binds
B3,binding,Flag-TGFBR3 (mouse),binds
